Reference: PubChem BioAssay AID504784 (Drosophila RNAi Screening Center, 2011)

- Assay: 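Fly genes whose silencing alters how much lipid cells keep in droplets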 (primary screen)
- Cells: Drosophila Kc167 embryonic cells
- Knock-down reagent: long dsRNA against Drosophila genes, about 250 ng dsRNA per well
- Timing: 4 days
- Treatment: cells fed 400 µM oleic acid bound to BSA
- Measurement: 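Microscope images give a droplet-to-nucleus area ratio, taken as log and converted to a screen-wide B-score; higher values mean greater lipid storage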
- Direction: droplet/nuclear area B-score: higher = more stored lipid (overstorage)
The deposit covers about 17,000 reagents; shown is an unselected part of those with a known target gene and a result. 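Each column is one replicate's B-score; the combined score over replicates was not deposited, so single values may mislead.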 Reagents against one gene are numbered here. Names joined by + are all predicted targets of the reagent.

| target | reagent | droplet/nuclear area B-score, replicate 1 | droplet/nuclear area B-score, replicate 2 | droplet/nuclear area B-score, replicate 3 |
| --- | --- | --- | --- | --- |
| CG17732 | 1 | 1.04 | 1.16 | – |
| CG3124 | 1 | 0.776 | 0.124 | – |
| CG3124 | 2 | 0.153 | 0.851 | – |
| SdhB (Succinate dehydrogenase, subunit B (iron-sulfur)) | 1 | 0.815 | -2.12 | -1.26 |
| SdhB (Succinate dehydrogenase, subunit B (iron-sulfur)) | 2 | -0.264 | -1.16 | – |
| CG7379 | 1 | -0.361 | -0.672 | 0.367 |
| CG13558 | 1 | 0.73 | -1.96 | – |
| CG31776 | 1 | -0.377 | -0.246 | – |
| H2.0 (Homeodomain protein 2.0) | 1 | 1.66 | -0.231 | -0.904 |
| H2.0 (Homeodomain protein 2.0) | 2 | 0.444 | 0.0349 | – |
| Nepl21 (Neprilysin-like 21) | 1 | 0.018 | – | – |
| CG32457 | 1 | -2.11 | 0.286 | – |
| CG32457 | 2 | -0.205 | 2.77 | – |
| Polr1F (RNA polymerase I subunit F) | 1 | 1.49 | -0.428 | – |
| CG30324 | 1 | -0.712 | 0.647 | – |
| cnir (cornichon related) | 1 | -1.16 | 1.04 | – |
| Clc (Clathrin light chain) | 1 | -1.81 | -0.629 | 0.209 |
| Chd3 | 1 | 0.632 | 1.51 | – |
| Spt (Spitting Image) | 1 | -1.92 | -1.4 | – |
| CG11723 | 1 | -0.541 | 0.847 | – |
| CG42288 | 1 | 0.045 | 0.965 | – |
| ImpL2 (Ecdysone-inducible gene L2) | 1 | 0.00925 | 0.0997 | – |
| Wdr37 (WD repeat domain 37) | 1 | -0.191 | 0.091 | – |
| CG7639 | 1 | -0.2 | -0.0378 | – |
| Prosbeta1 (Proteasome beta1 subunit) | 1 | -0.562 | 6.02 | – |
| Pos (Poseidon) | 1 | 0.999 | 0.308 | – |
| Usp14 (Ubiquitin specific protease 14) | 1 | 0.0179 | -0.926 | – |
| upSET | 1 | -0.43 | -0.0958 | -1.13 |
| upSET | 2 | 3.23 | 4.32 | – |
| atos (atossa) | 1 | 3.94 | 0.0798 | – |
| CG32024 | 1 | 0.00115 | 1.33 | – |
| mtTFB1 + Ccdc56 | 1 | -1.32 | -1.22 | -0.729 |
| Tsp42Ei (Tetraspanin 42Ei) | 1 | 0.776 | -1.24 | – |
| Cth (Cystathionine gamma-lyase) | 1 | 3.33 | -3.61 | – |

An excerpt of the results above, as a working copy:
| target | reagent | droplet/nuclear area B-score, replicate 1 | droplet/nuclear area B-score, replicate 2 | droplet/nuclear area B-score, replicate 3 |
| --- | --- | --- | --- | --- |
| CG11723 | 1 | -0.541 | 0.847 | – |
| CG42288 | 1 | 0.045 | 0.965 | – |
| ImpL2 (Ecdysone-inducible gene L2) | 1 | 0.00925 | 0.0997 | – |
| Wdr37 (WD repeat domain 37) | 1 | -0.191 | 0.091 | – |
| CG7639 | 1 | -0.2 | -0.0378 | – |
